Results are given in words; binding and its absence hold for the method and conditions named. In cells and extracts the contact can be indirect. Some binding calls cover weakened binding; strength is not graded here.

Protein sequences, listed by entry. Tags and fused reporters are not part of them.
UniProt Q9NZ42: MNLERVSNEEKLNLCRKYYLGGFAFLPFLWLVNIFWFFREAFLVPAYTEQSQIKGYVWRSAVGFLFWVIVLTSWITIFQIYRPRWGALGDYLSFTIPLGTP
UniProt Q96BI3: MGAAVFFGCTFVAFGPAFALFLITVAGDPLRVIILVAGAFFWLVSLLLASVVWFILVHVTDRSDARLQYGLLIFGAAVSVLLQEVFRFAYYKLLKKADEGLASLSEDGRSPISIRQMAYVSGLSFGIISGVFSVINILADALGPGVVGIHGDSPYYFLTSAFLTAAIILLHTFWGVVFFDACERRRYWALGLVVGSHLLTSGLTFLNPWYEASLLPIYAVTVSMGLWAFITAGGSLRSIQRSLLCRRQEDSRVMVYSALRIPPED

For the assay, the target named is Presenilin Enhancer 2 with N-terminal Calmodulin Binding Protein tag (CBP-PEN-2) (human) (UniProt Q9NZ42). The assay is described as follows: pull-down; Calmodulin affinity resin (CBP tag on PEN-2): pooled 100 mM imidazole IMAC fractions with 2 mM CaCl2 and 2 mM MgOAc, 16 h at 4 °C, elution 10 mM EGTA in 0.5% CHAPSO Tris buffer, concentrated on a 50 kDa filter; Coomassie and immunoblot.

On to “Anterior Pharynx Homologue 1a, long isoform (APH1aL) (from UniProt Q96BI3 1-265)”, for which the binding entry was “binds”.

These data come from paper PMC6110731.
